This is one part of the list. Residues, ends and D or L forms follow the SMILES beside them. *: point of attachment. Cbz = O=C(OCc1ccccc1)*
Legend:
Experiment in all cases: log2 fold change, soluble protein after heating vs DMSO (PISA); higher = thermal stabilisation; K562 cells, 10 uM, 30 min; active = over 0.2 and 3.5 SD of the protein, either way, in both replicates (recomputed)
[1] = compound: C#Cc1cccc(Nc2ncnc3cc(OCCOC)c(OCCOC)cc23)c1 [erlotinib]
Method in brief: (§1)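 Quantification of soluble protein used TMTpro 16plex LC-MS/MS, with channel sums equalised. Samples were the supernatant after 21,000xg for 90 min of pooled aliquots from K562 cells (2×10^6 cells/mL) treated with 10 μM compound for 30 min, heated for 3 min over 48°C-58°C, and extracted in PBS with 0.5% NP-40 at 4°C. Values, from duplicates, describe thermal stability against control samples on a log2 fold-change scale.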

Chains of the proteins cited; added tags and fusions are not shown. Lines headed by an entry give the natural chain unless they say otherwise; changes in a name come on top.
UniProt P05387, whole entry, looked up: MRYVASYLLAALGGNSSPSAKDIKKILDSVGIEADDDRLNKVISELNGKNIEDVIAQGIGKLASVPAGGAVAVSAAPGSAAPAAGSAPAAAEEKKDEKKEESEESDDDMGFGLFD
UniProt O75116: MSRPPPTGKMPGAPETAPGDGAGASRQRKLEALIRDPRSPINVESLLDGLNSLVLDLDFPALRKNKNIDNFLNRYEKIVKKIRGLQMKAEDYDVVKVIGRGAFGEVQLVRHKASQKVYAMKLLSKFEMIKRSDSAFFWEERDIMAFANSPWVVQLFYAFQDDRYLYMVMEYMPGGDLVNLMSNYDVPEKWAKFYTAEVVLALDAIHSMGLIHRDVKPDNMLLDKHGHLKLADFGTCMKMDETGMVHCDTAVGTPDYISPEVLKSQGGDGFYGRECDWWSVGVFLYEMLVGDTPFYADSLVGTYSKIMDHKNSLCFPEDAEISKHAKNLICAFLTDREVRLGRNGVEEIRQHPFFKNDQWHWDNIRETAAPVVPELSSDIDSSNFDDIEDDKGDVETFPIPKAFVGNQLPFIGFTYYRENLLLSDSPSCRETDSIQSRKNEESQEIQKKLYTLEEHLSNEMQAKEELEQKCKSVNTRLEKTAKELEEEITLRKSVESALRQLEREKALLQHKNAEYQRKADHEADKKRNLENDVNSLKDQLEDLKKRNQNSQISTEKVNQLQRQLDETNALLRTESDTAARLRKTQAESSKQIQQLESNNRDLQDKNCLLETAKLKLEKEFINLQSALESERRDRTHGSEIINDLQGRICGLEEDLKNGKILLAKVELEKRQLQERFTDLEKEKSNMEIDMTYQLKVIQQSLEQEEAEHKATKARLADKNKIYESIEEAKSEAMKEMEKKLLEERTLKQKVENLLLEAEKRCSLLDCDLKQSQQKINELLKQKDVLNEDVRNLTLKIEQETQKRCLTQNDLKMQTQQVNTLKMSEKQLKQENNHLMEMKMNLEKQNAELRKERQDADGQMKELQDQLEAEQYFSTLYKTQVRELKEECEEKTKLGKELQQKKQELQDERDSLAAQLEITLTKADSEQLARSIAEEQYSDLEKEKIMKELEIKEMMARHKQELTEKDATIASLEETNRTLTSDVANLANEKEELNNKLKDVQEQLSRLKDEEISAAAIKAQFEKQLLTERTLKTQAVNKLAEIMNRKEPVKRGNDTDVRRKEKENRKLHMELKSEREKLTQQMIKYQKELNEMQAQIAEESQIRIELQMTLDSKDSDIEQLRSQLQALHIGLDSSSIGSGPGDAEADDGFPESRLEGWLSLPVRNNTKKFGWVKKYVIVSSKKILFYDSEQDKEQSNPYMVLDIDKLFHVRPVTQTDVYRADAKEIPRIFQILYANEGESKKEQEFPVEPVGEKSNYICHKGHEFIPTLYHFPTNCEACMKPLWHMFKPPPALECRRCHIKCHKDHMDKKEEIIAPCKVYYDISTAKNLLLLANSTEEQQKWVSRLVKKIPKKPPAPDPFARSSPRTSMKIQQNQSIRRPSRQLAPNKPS
UniProt Q7L523, whole entry, looked up: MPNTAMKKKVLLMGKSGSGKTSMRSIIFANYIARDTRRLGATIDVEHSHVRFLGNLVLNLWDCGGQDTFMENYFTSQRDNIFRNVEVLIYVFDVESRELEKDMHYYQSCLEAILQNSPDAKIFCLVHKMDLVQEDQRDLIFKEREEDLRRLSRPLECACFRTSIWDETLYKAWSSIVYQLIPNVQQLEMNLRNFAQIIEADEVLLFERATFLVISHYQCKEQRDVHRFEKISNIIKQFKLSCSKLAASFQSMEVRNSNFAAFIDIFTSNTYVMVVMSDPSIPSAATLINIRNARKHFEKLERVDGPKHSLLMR
UniProt P10301: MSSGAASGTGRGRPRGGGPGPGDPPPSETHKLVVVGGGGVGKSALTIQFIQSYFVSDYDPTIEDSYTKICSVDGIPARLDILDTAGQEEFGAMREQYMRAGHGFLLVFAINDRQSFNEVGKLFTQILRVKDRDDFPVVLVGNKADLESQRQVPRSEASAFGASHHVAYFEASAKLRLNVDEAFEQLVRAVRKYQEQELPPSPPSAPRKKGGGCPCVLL
UniProt Q969K3: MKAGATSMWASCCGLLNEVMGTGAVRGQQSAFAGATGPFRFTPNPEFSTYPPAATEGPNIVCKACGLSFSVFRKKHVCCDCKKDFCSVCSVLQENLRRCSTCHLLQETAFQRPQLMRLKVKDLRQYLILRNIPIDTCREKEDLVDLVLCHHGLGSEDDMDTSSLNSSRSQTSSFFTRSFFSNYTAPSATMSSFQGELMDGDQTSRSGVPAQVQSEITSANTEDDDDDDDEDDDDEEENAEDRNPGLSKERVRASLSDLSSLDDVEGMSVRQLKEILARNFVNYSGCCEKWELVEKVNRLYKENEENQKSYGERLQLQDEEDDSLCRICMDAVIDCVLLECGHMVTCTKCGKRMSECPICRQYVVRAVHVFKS

[2] = compound: C/C(=N\NC(=O)C1=CC(=CC=C1)S(=O)(=O)N2CCOCC2)/C3=C(C=CC(=C3)Cl)O
Method in brief: as §1

[3] = compound: C1=CC(=C(C=C1Cl)C2=NC3=NC=CN=C3C(=N2)NC4=CC=NC=C4)F
Method in brief: as §1

[4] = compound: C1=CC(=CC=C1C2=NC3=C(N2)C=C(C=C3)C(=O)N)OC4=CC=C(C=C4)Cl
Method in brief: as §1

[5] = compound: C1=CC2=C(C=CC(=C2)/C=C\3/C(=O)NC(=NCC4=CC=CS4)S3)N=C1
Method in brief: as §1

[6] = compound: C1=CC2=NC=CN=C2C=C1/C=C/3\C(=O)NC(=O)S3
Method in brief: as §1

[7] = compound: C1=CC=C(C=C1)C2=NC(=C(N2)C3=CC=NC=C3)C4=CC(=C(C=C4)Cl)O
Method in brief: as §1

[8] = compound: C1=CC=C2C(=C1)C3=NNC4=CC=CC(=C43)C2=O
Method in brief: as §1

[9] = compound: C1CCN(C1)C(=O)NC2=CC=CC(=C2)NC3=NC=C(C(=N3)NCCC4=CN=CN4)Br
Method in brief: as §1

[10] = compound: C1CN(CCC1(CC2=CC=C(C=C2)Cl)N)C3=NC=NC4=C3C=CN4
Method in brief: as §1

[11] = compound: C1COCCN1CCN2C3=CC=CC=C3N=C2NC(=O)C4=CC(=CC=C4)[N+](=O)[O-] [IRAK-1-4 Inhibitor I]
Method in brief: as §1

[12] = compound: C=CC(=O)N1CCC[C@@H](n2nc(-c3ccc(Oc4ccccc4)cc3)c3c(N)ncnc32)C1 [ibrutinib]
Method in brief: as §1

[13] = compound: CC(=O)c1cnc2ccc(-c3cc(Cl)c(O)c(Cl)c3)nc2c1N[C@H]1CC[C@H](CN(C)C)CC1
Method in brief: as §1

[14] = compound: CC(C)(C)Cn1c(N)nc2ccc(-c3[nH]c(C(C)(C)C)nc3-c3ccc(F)cc3)nc21 [ralimetinib]
Method in brief: as §1

[15] = compound: CC(C)(O)CC(=O)NCCn1ccc2ncnc(Nc3ccc(Oc4cccc(C(F)(F)F)c4)c(Cl)c3)c21
Method in brief: as §1

[16] = compound: CC(C)C1=C2N=C(C=C(N2N=C1)NCC3=CC=CC=C3)NCCCCCCN
Method in brief: as §1

[17] = compound: CC(C)C[C@@H](C=O)NC(=O)[C@H](CC(C)C)NC(=O)[C@H](CC(C)C)NC(=O)OCc1ccccc1
Method in brief: as §1

[18] = compound: CC(C)N(C[C@H]1O[C@@H](n2cnc3c(N)ncnc32)[C@H](O)[C@@H]1O)[C@H]1C[C@@H](CCc2nc3cc(C(C)(C)C)ccc3[nH]2)C1 [pinometostat]
Method in brief: as §1

[19] = compound: CC1=C(C(CC(=O)N1)C2=CC=C(C=C2)C(F)(F)F)C(=O)NC3=C(C=C4C(=C3)C=NN4)F
Method in brief: as §1

[20] = compound: CC1=C(C2=C(C=C1)C(=O)C3=CC=CC=C3N2CCCN)C
Method in brief: as §1

Measured: log2 fold change

RPLP2 (UniProt P05387)
inactive: [1] -0.331 | [2] -0.276 | [3] -0.841 | [4] 0.04 | [5] -0.136 | [6] 0 | [7] -0.108 | [8] -0.001 | [9] -0.015 | [10] -0.25 | [11] -0.229 | [12] 0.029 | [13] 0.168 | [14] 0.176 | [15] 0.068 | [16] 0.051 | [17] 0.145 | [18] 0.382 | [19] 0.097 | [20] -0.768

RPS7 (UniProt P62081)
inactive: [1] -0.174 | [2] -0.193 | [3] -0.46 | [4] 0.006 | [5] -0.083 | [6] -0.074 | [7] -0.056 | [8] -0.027 | [9] 0.067 | [10] -0.136 | [11] -0.096 | [12] 0.045 | [13] 0.069 | [14] 0.167 | [15] 0.048 | [16] 0.001 | [17] 0.089 | [18] 0.308 | [19] 0.027 | [20] -0.264

ROCK2 (UniProt O75116)
inactive: [1] 0.05 | [2] 0.02 | [3] 0.031 | [4] 0.003 | [5] 0.158 | [6] 0.126 | [7] -0.009 | [8] -0.071 | [9] 0.036 | [10] 0.099 | [11] -0.037 | [12] -0.052 | [13] -0.137 | [14] 0.032 | [15] -0.049 | [16] -0.138 | [17] 0.034 | [18] 0.021 | [20] 0
active: [19] 0.29

RRAGA (UniProt Q7L523)
inactive: [1] -0.132 | [2] 0.149 | [3] 0.116 | [4] 0.203 | [5] -0.27 | [6] 0.019 | [7] 0.308 | [8] -0.083 | [9] -0.125 | [10] -0.028 | [11] 0.045 | [12] 0.064 | [13] 0.13 | [14] 0.207 | [15] 0.014 | [16] -0.014 | [17] -0.009 | [18] -0.057 | [19] 0.062 | [20] -0.069

RPL23A (UniProt P62750)
inactive: [1] -0.225 | [2] -0.144 | [3] -0.474 | [4] 0.005 | [5] -0.133 | [6] -0.032 | [7] -0.042 | [8] 0.018 | [9] -0.001 | [10] -0.172 | [11] -0.14 | [12] 0.061 | [13] 0.175 | [14] 0.191 | [15] 0.006 | [16] -0.01 | [17] 0.05 | [18] 0.303 | [19] 0.031 | [20] -0.683

RRAS (UniProt P10301)
inactive: [1] 0.036 | [2] -0.011 | [3] 0.04 | [4] -0.022 | [5] 0.03 | [6] 0.023 | [7] -0.008 | [8] -0.046 | [9] -0.026 | [10] 0.025 | [11] -0.015 | [12] 0.049 | [13] -0.053 | [14] -0.053 | [15] 0.027 | [16] 0.066 | [17] 0.015 | [18] -0.032 | [19] -0.003 | [20] 0.07

RNF34 isoform 2 (UniProt Q969K3)
inactive: [1] 0 | [2] -0.106 | [3] -0.033 | [4] -0.012 | [5] -0.029 | [6] 0.039 | [7] -0.017 | [8] 0.073 | [9] -0.102 | [10] 0 | [11] 0.027 | [12] -0.052 | [13] -0.22 | [14] -0.122 | [15] -0.202 | [16] -0.037 | [17] 0.254 | [18] -0.014 | [19] -0.072 | [20] -0.008

RPL10 (UniProt P27635)
inactive: [1] -0.321 | [2] -0.188 | [3] -0.674 | [4] 0.082 | [5] -0.198 | [6] -0.051 | [7] -0.019 | [8] 0.018 | [9] 0.038 | [10] -0.247 | [11] -0.227 | [12] 0.056 | [13] 0.156 | [14] 0.283 | [15] 0 | [16] -0.042 | [17] 0.096 | [18] 0.477 | [19] 0.072 | [20] -0.496
